Results on 1 substance are retold here after article PMC9771724.

Chains of the proteins cited; added tags and fusions are not shown.
UniProt Q9UJU2: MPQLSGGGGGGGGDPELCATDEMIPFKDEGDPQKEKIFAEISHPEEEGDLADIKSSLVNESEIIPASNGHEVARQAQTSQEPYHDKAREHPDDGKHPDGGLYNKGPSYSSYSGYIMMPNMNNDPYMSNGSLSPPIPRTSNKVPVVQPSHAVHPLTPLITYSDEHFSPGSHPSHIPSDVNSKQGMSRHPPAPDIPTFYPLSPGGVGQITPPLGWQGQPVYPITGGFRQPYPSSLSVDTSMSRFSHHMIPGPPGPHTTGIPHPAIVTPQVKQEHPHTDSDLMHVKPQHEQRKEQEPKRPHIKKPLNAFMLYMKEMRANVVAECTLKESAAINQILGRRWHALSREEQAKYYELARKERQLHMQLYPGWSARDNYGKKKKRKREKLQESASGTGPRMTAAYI
UniProt P36402: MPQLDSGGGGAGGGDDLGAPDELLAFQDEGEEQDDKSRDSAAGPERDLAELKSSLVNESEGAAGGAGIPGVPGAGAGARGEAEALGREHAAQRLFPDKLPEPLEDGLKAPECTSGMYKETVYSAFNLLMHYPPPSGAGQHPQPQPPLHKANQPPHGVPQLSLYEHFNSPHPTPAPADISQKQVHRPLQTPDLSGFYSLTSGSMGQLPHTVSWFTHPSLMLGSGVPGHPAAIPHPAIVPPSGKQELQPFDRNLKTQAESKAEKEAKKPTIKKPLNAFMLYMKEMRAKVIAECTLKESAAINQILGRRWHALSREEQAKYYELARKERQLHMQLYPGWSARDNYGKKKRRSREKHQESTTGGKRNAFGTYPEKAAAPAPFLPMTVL
UniProt P48436: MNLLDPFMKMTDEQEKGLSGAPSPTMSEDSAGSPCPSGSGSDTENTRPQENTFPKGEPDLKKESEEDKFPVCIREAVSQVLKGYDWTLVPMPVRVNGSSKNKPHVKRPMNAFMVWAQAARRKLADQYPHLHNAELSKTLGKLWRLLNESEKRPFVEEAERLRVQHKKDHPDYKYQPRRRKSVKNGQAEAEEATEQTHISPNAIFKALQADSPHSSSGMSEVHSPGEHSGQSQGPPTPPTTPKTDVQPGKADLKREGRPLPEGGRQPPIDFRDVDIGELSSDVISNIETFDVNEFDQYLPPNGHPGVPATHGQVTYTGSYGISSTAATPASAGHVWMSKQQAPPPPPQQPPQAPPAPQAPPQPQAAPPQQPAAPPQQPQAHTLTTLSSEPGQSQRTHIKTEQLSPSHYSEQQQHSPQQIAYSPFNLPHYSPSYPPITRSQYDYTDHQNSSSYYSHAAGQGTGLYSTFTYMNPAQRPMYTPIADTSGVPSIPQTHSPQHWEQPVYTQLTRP

These are yes or no findings as the source states them, for the method shown. Some results given as binding are weak or reduced against the parent protein; the word gives no strength.

For one assay, the target named is GST-tagged LEF1 (UniProt Q9UJU2). The assay can be described thus: pull-down; GST-tagged proteins as bait on glutathione-sepharose, His-tagged proteins as prey; 0.25 to 2 ug of each protein; 25 mM Hepes pH 7.5, 12.5 mM MgCl2, 300 mM KCl, 0.1% NP-40, 1 mg/ml BSA, 1 mM DTT; 4 °C; washes with 400 mM KCl, 0.5% NP-40; Western blot; HMG-HMG pair also tested with Mnase treatment; both purified. On the technique in general: A western blot detects proteins with antibodies after separation by electrophoresis.

For the next assay, the target named is GST-tagged TCF7 (UniProt P36402). The description is as above.

Turning to “His-tagged full-length SOX9 (from UniProt P48436 1-509)”, the binding result with GST-tagged LEF1 and with GST-tagged TCF7 was “binds” throughout.
